From publication PMC3639281 come the findings set out here.

Chains of the proteins cited; added tags and fusions are not shown.
UniProt Q03135: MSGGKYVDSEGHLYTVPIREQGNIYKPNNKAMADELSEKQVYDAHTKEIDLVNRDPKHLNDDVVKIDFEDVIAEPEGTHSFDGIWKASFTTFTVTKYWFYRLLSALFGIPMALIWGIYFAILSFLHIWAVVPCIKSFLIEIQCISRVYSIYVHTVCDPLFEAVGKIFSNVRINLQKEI
UniProt P07355: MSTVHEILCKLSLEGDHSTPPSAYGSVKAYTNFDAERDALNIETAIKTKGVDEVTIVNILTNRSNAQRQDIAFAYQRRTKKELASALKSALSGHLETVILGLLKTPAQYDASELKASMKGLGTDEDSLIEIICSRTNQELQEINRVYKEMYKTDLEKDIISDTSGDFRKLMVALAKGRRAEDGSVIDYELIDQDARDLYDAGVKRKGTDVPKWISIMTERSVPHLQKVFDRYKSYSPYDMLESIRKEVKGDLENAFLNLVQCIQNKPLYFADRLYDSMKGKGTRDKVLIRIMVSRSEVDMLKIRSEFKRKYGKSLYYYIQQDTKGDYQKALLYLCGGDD

Results are given in words; binding and its absence hold for the method and conditions named. Some binding calls cover weakened binding; strength is not graded here.

The assay addresses caveolin 1 (human (endogenous in placenta)) (UniProt Q03135). The assay can be described thus: native gel or EMSA; 2D BN/SDS-PAGE of human placenta lysate solubilised with 1.5% Triton X-100 (4-13% blue native PAGE, pH 7.0, 4°C, then SDS-PAGE); spots in the same vertical line identified by LC-MS/MS. (A gel shift assay detects complexes by their altered migration in electrophoresis.)

As for annexin A2 (from UniProt P07355 1-339), the binding result was “binds”.
